In publication PMC4465499:
Results are given in words; binding and its absence hold for the method and conditions named. In cells and extracts the contact can be indirect. Some binding calls cover weakened binding; strength is not graded here.

Amino acid sequences for entries named in this document (tags omitted).
UniProt P38398: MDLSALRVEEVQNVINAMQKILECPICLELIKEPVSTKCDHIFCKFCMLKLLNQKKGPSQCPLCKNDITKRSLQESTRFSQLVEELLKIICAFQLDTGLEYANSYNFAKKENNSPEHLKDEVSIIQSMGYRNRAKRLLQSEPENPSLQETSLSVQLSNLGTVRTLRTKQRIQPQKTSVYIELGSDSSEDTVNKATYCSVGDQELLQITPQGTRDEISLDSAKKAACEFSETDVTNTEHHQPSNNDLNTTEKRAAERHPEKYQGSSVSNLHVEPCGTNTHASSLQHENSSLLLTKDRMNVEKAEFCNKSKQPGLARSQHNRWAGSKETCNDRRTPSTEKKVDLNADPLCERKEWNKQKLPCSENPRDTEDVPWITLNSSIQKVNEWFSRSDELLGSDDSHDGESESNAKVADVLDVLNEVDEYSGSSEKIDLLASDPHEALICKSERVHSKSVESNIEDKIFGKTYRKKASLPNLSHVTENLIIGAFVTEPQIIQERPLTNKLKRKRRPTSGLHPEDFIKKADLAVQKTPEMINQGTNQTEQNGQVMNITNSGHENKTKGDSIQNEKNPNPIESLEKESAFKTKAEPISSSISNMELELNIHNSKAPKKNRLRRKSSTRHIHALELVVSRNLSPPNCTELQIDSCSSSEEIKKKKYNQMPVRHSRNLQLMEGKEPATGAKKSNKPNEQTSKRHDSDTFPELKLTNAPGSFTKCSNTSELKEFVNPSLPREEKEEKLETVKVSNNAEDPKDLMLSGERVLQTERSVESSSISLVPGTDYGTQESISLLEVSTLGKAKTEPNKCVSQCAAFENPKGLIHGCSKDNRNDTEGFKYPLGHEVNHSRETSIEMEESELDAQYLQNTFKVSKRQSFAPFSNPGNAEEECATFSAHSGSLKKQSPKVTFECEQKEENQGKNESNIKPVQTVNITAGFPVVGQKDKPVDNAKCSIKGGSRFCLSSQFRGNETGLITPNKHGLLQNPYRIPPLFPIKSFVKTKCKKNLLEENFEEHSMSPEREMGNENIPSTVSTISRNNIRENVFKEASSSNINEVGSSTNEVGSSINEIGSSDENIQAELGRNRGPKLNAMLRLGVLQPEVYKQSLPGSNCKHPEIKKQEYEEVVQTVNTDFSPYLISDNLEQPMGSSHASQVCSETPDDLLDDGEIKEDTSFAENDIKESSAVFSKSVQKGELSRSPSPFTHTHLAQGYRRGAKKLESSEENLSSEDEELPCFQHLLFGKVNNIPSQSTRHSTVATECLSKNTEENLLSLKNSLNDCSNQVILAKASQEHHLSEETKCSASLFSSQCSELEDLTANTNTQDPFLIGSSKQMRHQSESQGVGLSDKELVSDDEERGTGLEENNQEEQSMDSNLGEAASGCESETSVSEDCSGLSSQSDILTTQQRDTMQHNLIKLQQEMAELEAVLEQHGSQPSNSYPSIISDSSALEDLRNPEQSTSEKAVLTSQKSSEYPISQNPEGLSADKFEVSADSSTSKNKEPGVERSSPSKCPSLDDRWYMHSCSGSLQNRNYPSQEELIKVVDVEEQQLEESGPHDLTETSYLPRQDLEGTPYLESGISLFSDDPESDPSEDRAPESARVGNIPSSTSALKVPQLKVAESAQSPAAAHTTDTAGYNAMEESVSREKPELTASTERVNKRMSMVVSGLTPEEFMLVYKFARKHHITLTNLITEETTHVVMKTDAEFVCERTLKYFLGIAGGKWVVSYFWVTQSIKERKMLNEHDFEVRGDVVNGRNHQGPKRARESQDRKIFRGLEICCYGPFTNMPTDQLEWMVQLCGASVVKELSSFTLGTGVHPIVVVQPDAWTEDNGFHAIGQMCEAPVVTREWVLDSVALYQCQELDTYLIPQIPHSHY

Molecular target: BRCA1 (human (endogenous in MCF-7)) (UniProt P38398)
Test: co-IP; endogenous BRCA1 precipitated from total cell extract (MCF-7 or HCC1937) with anti-BRCA1 monoclonal antibody overnight, Protein A/G PLUS-Agarose 2 h at 4 C, three washes in lysis buffer (20 mM NaCl, 30 mM KCl, 0.1% DTT, 0.5% Triton X-100); immunoblot with anti-ATF1

binding: binds
B1: cyclic AMP-dependent transcription factor ATF1 (protein, UniProt P18846 1-271)
chain: MEDSHKSTTSETAPQPGSAVQGAHISHIAQQVSSLSESEESQDSSDSIGSSQKAHGILARRPSYRKILKDLSSEDTRGRKGDGENSGVSAAVTSMSVPTPIYQTSSGQYIAIAPNGALQLASPGTDGVQGLQTLTMTNSGSTQQGTTILQYAQTSDGQQILVPSNQVVVQTASGDMQTYQIRTTPSATSLPQTVVMTSPVTLTSQTTKTDDPQLKREIRLMKNREAARECRRKKKEYVKCLENRVAVLENQNKTLIEELKTLKDLYSNKSV
